The values below come from PubChem BioAssay AID601 (SRMLSC, 2007).

SMILES strings stand for the structures. The list shows a part of the results.

The nature of this assay: MRP1 drug-resistance reversers in H69AR cells – cell-based, doxorubicin co-treatment, pilot screen (AID 601). The following applies: CellTiter-Glo, 72 h, at 10 µM. (In general: Cellular ATP, detected with luciferase, serves as a proxy for viable cell number.)
Setting [1] is: H69AR cells + 2 uM doxorubicin, measured here: viability with 2 uM doxorubicin, stronger effect = lower value.
Where [2] appears, read: H69AR cells, compound alone cytotoxicity.

For `CCOP1(=S)c2c(C)nn(CCC#N)c2N=C(c2ccccc2F)N1C` (stereo not given), the viability (in general, a read-out of living cells in per cent, often relative to untreated cells) under setting [1] worked out at 79.6% and the viability under setting [2] is 79.3%.

On to `Cc1ccc(C)c(NP(C)(=O)Oc2ccccc2)c1` (stereo not given), for which the viability by setting is: under setting [1], 87.5%; under setting [2], 91.4%.

Take `Cc1nn(-c2ccccc2)c2c1P(=O)(N1CCOCC1)N(C)C(c1ccccc1)=N2` (stereo not given): the viability is, setting by setting: under setting [1], 96.4%; under setting [2], 89.8%.

In the case of `CP(=S)(Nn1cnnc1)Oc1ccccc1` (stereo not given), the viability is, setting by setting: under setting [1], 93.6%; under setting [2], 83.6%.

Take `O=C(COc1ccccc1)OC1CN2CCC1CC2` (stereo not given): the viability under setting [1] was determined as 96.1% and the viability under setting [2] worked out at 105%.

For the molecule `COP1(=S)c2c(C)nn(CCC#N)c2N=C(c2ccc(F)cc2)N1C` (stereo not given), the viability was 82.5% under setting [1] and 78.2% under setting [2].

Turning to `CP(=O)(Nc1ccccn1)Oc1ccccc1` (stereo not given), the viability is, setting by setting: under setting [1], 95.8%; under setting [2], 100%.

Take `CN(C)CCOC(=O)C(O)(c1ccccc1)C1CCCCC1` (stereo not given): the viability was 83.2% under setting [1] and 93.2% under setting [2].

With `CP(=O)(Nc1ccc2c(c1)OCCO2)Oc1ccccc1` (stereo not given), the viability under setting [1] was 88.3% and the viability under setting [2] is 87.5%.

Take `O=P(Nc1nccs1)(c1ccccc1)c1ccccc1`: the viability was 92.2% under setting [1] and 103% under setting [2].
